PubChem BioAssay AID1259425 – University of Nebraska Medical Center, 2018
In all, the deposit lists about 14,000 reagents; below is an unselected part. Not all columns of the deposit are shown. Not given: the time to read-out.

- Assay: 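Seek colon cancer weak points whose silencing resembles KSR1 loss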 (primary screen)
- Cells: HCT116 human colon cancer cells
- Knock-down reagent: siRNA pool against human genes, 50 nM siRNA
- Detection: 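mRNA of six signature genes measured together by branched-DNA assay after 50 nM siRNA pool, blank removed, divided by geometric mean of two housekeeping genes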
- Scale: BNIP3L mRNA: higher = more BNIP3L transcript after knockdown; NDRG1 mRNA: higher = more NDRG1 transcript after knockdown

PEX5L gave BNIP3L mRNA, set 1 = 0.0631; NDRG1 mRNA, set 1 = 0.305.
Against GNAT1 the deposit lists BNIP3L mRNA, set 1 = 0.0635; NDRG1 mRNA, set 1 = 0.076.
Silencing of TRAPPC8 came out at: BNIP3L mRNA, set 1 = 0.153; NDRG1 mRNA, set 1 = 0.0867.
GABRA3 gave BNIP3L mRNA, set 1 = 0.0578; NDRG1 mRNA, set 1 = 0.145.
With knock-down of ANGPTL1 the results were BNIP3L mRNA, set 1 = 0.06; NDRG1 mRNA, set 1 = 0.163.
After knock-down of HEY1 the results were BNIP3L mRNA, set 1 = 0.0511; NDRG1 mRNA, set 1 = 0.12.
With knock-down of INTS15 the results were BNIP3L mRNA, set 1 = 0.112; NDRG1 mRNA, set 1 = 0.245.
Against KEL, the entry reads BNIP3L mRNA, set 1 = 0.173; NDRG1 mRNA, set 1 = 0.152.
Depletion of VCL came out at: BNIP3L mRNA, set 1 = 0.0879; NDRG1 mRNA, set 1 = 0.11.
LAPTM4A gave BNIP3L mRNA, set 1 = 0.195; NDRG1 mRNA, set 1 = 0.558.
With knock-down of CAND1, the screen gave BNIP3L mRNA, set 1 = 0.0828; NDRG1 mRNA, set 1 = 0.166.
ZWILCH gave BNIP3L mRNA, set 1 = 0.127; NDRG1 mRNA, set 1 = 0.173.

2 neighbouring reagents already listed, quoted:
PEX5L | BNIP3L mRNA, set 1: 0.0631; NDRG1 mRNA, set 1: 0.305
GNAT1 | BNIP3L mRNA, set 1: 0.0635; NDRG1 mRNA, set 1: 0.076
